Measured values taken from patent US20040247604A1, “Anti-inflamatory fatty alcohols and fatty acid esters useful as antigen carriers” (priority 2001, published 2004).
Some of these results come from one statement about several compounds together.

Tested on: adjuvant arthritis
Test: Protection against adjuvant arthritis (AA): inhibition of joint inflammation
Assay type: in vivo
Details: 100 μl, subcutaneously once (14 days before or day 12 after induction of AA), Lewis rats, day of maximal inflammation

Compound	% Inhibition of inflammation of adjuvant arthritis (listed as mannose monooleate)	% Inhibition of inflammation of adjuvant arthritis (listed as glycerol monooleate)
Mannose monooleate	more than 66%	–
CCCCCCCC/C=C\CCCCCCCC(=O)OCC(O)CO (centres unmarked) [Glycerol mono-oleate]	–	more than 66%
